# Experimental data taken from the supplement of paper PMC6331611.
# ± gives the standard deviation of the averaged measurements. In all, about 1,600 compounds were measured (“normalized intracellular growth (luminescence, IQM-normalized) in RAW264.7 macrophages”: median about 1, lowest 2% from about 0.43 on). Some of the results follow.
# Test system: Salmonella enterica serovar Typhimurium SL1344
# Assay: normalized intracellular growth (luminescence, IQM-normalized) in RAW264.7 macrophages (fraction of plate interquartile mean); higher = more bacterial growth (less inhibition)
# Details: 10 µM
smiles,measurement,setting,value
CN1C[C@H](C(=O)N[C@]2(C)O[C@@]3(O)[C@@H]4CCCN4C(=O)[C@H](Cc4ccccc4)N3C2=O)C=C2c3cccc4[nH]cc(c34)C[C@H]21,normalized intracellular growth,time point: T3 (3 h),1.03 ± 0.02
same,normalized intracellular growth,time point: Tfinal (~6 h),0.769 ± 0.38
[O-][n+]1ccccc1[S-].[O-][n+]1ccccc1[S-].[Zn+2],normalized intracellular growth,time point: T3 (3 h),0.762 ± 0.15
same,normalized intracellular growth,time point: Tfinal (~6 h),1.47 ± 0.12
CN1[C@@H]2C[C@@H](OC(=O)[C@H](CO)c3ccccc3)C[C@H]1[C@@H]1O[C@@H]12,normalized intracellular growth,time point: T3 (3 h),0.9722 ± 0.0094
same,normalized intracellular growth,time point: Tfinal (~6 h),1.12 ± 0.083
O=[N+]([O-])C(Br)(CO)CO,normalized intracellular growth,time point: T3 (3 h),0.988 ± 0.023
same,normalized intracellular growth,time point: Tfinal (~6 h),1.03 ± 0.11
NCC(CC(=O)O)c1ccc(Cl)cc1 (stereo unspecified),normalized intracellular growth,time point: T3 (3 h),0.993 ± 0.034
same,normalized intracellular growth,time point: Tfinal (~6 h),0.908 ± 0.038
CCOC(=O)CC(SP(=S)(OC)OC)C(=O)OCC (stereo unspecified),normalized intracellular growth,time point: T3 (3 h),0.9134 ± 0.0039
same,normalized intracellular growth,time point: Tfinal (~6 h),0.929 ± 0.32
CC(N)Cc1ccc(O)cc1 (stereo unspecified),normalized intracellular growth,time point: T3 (3 h),0.95 ± 0.082
same,normalized intracellular growth,time point: Tfinal (~6 h),0.903 ± 0.11
NCc1cccnc1,normalized intracellular growth,time point: T3 (3 h),1 ± 0.03
same,normalized intracellular growth,time point: Tfinal (~6 h),0.876 ± 0.071
O=C(O)CCCO,normalized intracellular growth,time point: T3 (3 h),0.993 ± 0.076
same,normalized intracellular growth,time point: Tfinal (~6 h),0.955 ± 0.026
C=C/C=C\CC1=C(C)[C@@H](OC(=O)[C@@H]2[C@@H](/C=C(\C)C(=O)OC)C2(C)C)CC1=O.C=C/C=C\CC1=C(C)[C@@H](OC(=O)[C@@H]2[C@@H](C=C(C)C)C2(C)C)CC1=O,normalized intracellular growth,time point: T3 (3 h),1.01 ± 0.014
same,normalized intracellular growth,time point: Tfinal (~6 h),0.938 ± 0.13
CC(NC(C)(C)C)C(=O)c1cccc(Cl)c1 (stereo unspecified),normalized intracellular growth,time point: T3 (3 h),1.02 ± 0.026
same,normalized intracellular growth,time point: Tfinal (~6 h),0.94 ± 0.061
CN[C@@H]1[C@@H](O)[C@@H](O[C@@H]2[C@@H](O)[C@H](O[C@H]3O[C@H](CN)CC[C@H]3N)[C@@H](N)C[C@H]2N)OC[C@]1(C)O.CN[C@@H]1[C@@H](O)[C@@H](O[C@@H]2[C@@H](O)[C@H](O[C@H]3O[C@H]([C@@H](C)N)CC[C@H]3N)[C@@H](N)C[C@H]2N)OC[C@]1(C)O.CN[C@@H]1[C@@H](O)[C@@H](O[C@@H]2[C@@H](O)[C@H](O[C@H]3O[C@H]([C@@H](C)NC)CC[C@H]3N)[C@@H](N)C[C@H]2N)OC[C@]1(C)O,normalized intracellular growth,time point: T3 (3 h),0.936 ± 0.049
same,normalized intracellular growth,time point: Tfinal (~6 h),0.895 ± 0.049
CN1CCN(C(=O)O[C@H]2c3nccnc3C(=O)N2c2ccc(Cl)cn2)CC1,normalized intracellular growth,time point: T3 (3 h),1.05 ± 0.039
same,normalized intracellular growth,time point: Tfinal (~6 h),0.937 ± 0.18
O=C1CC[C@@]2(O)[C@H]3Cc4ccc(O)c5c4[C@@]2(CCN3CC2CC2)[C@H]1O5,normalized intracellular growth,time point: T3 (3 h),1.04 ± 0.071
same,normalized intracellular growth,time point: Tfinal (~6 h),1.12 ± 0.11
NC(=O)c1cc([N+](=O)[O-])cc([N+](=O)[O-])c1,normalized intracellular growth,time point: T3 (3 h),1.14 ± 0.014
same,normalized intracellular growth,time point: Tfinal (~6 h),1.14 ± 0.099
CC(=O)O[C@H]1C[C@@H]2CC[C@@H]3[C@H](CC[C@@]4(C)[C@H]3C[C@H]([N+]3(C)CCCCC3)[C@@H]4OC(C)=O)[C@@]2(C)C[C@@H]1[N+]1(C)CCCCC1,normalized intracellular growth,time point: T3 (3 h),0.927 ± 0.054
same,normalized intracellular growth,time point: Tfinal (~6 h),0.928 ± 0.067
NCC(O)c1ccc(O)cc1 (stereo unspecified),normalized intracellular growth,time point: T3 (3 h),0.977 ± 0.056
same,normalized intracellular growth,time point: Tfinal (~6 h),0.872 ± 0.14
C[C@]12CC[C@H]3[C@@H](CCC4=CC(=O)CC[C@@]43C)[C@@H]1CC[C@@H]2O,normalized intracellular growth,time point: T3 (3 h),1.03 ± 0.17
same,normalized intracellular growth,time point: Tfinal (~6 h),1.23 ± 0.058
c1ccc2c(c1)Nc1ccccc1S2,normalized intracellular growth,time point: T3 (3 h),1.1 ± 0.054
same,normalized intracellular growth,time point: Tfinal (~6 h),0.889 ± 0.14
Cc1ccc(/N=C/N(C)/C=N/c2ccc(C)cc2C)c(C)c1,normalized intracellular growth,time point: T3 (3 h),1.12 ± 0.025
same,normalized intracellular growth,time point: Tfinal (~6 h),0.594 ± 0.084
O=c1c2ccccc2[se]n1-c1ccccc1,normalized intracellular growth,time point: T3 (3 h),0.969 ± 0.039
same,normalized intracellular growth,time point: Tfinal (~6 h),0.813 ± 0.14
S=C=NCc1ccccc1,normalized intracellular growth,time point: T3 (3 h),1.24 ± 0.17
same,normalized intracellular growth,time point: Tfinal (~6 h),1.22 ± 0.14
COP(=O)(OC)OC=C(Cl)Cl,normalized intracellular growth,time point: T3 (3 h),1 ± 0.065
same,normalized intracellular growth,time point: Tfinal (~6 h),1.06 ± 0.066
C[C@]12CCC(=O)C=C1C=C[C@@H]1[C@@H]2CC[C@@]2(C)[C@H]1CC[C@@]2(O)CCC(=O)O,normalized intracellular growth,time point: T3 (3 h),1.12 ± 0.092
same,normalized intracellular growth,time point: Tfinal (~6 h),1.21 ± 0.15
CC[C@@H](C(=O)[C@@H](C)[C@@H](O)[C@H](C)[C@@H]1O[C@@H]([C@@H](CC)C(=O)O)CC[C@@H]1C)[C@H]1O[C@]2(C=C[C@@H](O)[C@]3(CC[C@@](C)([C@H]4CC[C@](O)(CC)[C@H](C)O4)O3)O2)[C@H](C)C[C@@H]1C,normalized intracellular growth,time point: T3 (3 h),1.06 ± 0.083
same,normalized intracellular growth,time point: Tfinal (~6 h),0.73 ± 0.13
Cc1cccc(C)c1NC(=O)CN1CCCC1=O,normalized intracellular growth,time point: T3 (3 h),1.03 ± 0.03
same,normalized intracellular growth,time point: Tfinal (~6 h),0.892 ± 0.042
C=CCN1CC[C@]23c4c5ccc(O)c4O[C@H]2C(=O)CC[C@@]3(O)[C@H]1C5,normalized intracellular growth,time point: T3 (3 h),1.052 ± 0.0039
same,normalized intracellular growth,time point: Tfinal (~6 h),0.549 ± 0.16
O=c1n(Cl)c(=O)n(Cl)c(=O)n1Cl,normalized intracellular growth,time point: T3 (3 h),1.05 ± 0.043
same,normalized intracellular growth,time point: Tfinal (~6 h),1.08 ± 0.064
COP(=O)(OC)C(O)C(Cl)(Cl)Cl (stereo unspecified),normalized intracellular growth,time point: T3 (3 h),1.02 ± 0.033
same,normalized intracellular growth,time point: Tfinal (~6 h),0.756 ± 0.31
Oc1ccc2c3c1O[C@H]1[C@@H](O)CC[C@@]4(O)[C@@H](C2)N(CC2CCC2)CC[C@]314,normalized intracellular growth,time point: T3 (3 h),0.994 ± 0.047
same,normalized intracellular growth,time point: Tfinal (~6 h),0.887 ± 0.27
CC(=O)O[C@H]1CC[C@@]2(C)C(=CC[C@@H]3[C@@H]2CC[C@]2(C)C(=O)CC[C@@H]32)C1,normalized intracellular growth,time point: T3 (3 h),0.984 ± 0.015
same,normalized intracellular growth,time point: Tfinal (~6 h),1.12 ± 0.11
CN1C[C@H](CNC(=O)OCc2ccccc2)C[C@@H]2c3cccc4c3c(cn4C)C[C@H]21,normalized intracellular growth,time point: T3 (3 h),0.458 ± 0.2
same,normalized intracellular growth,time point: Tfinal (~6 h),0.839 ± 0.23
CC(C)c1cccc(C(C)C)c1O,normalized intracellular growth,time point: T3 (3 h),1.04 ± 0.047
same,normalized intracellular growth,time point: Tfinal (~6 h),1 ± 0.14
CC[N+]1(C)CCCC(OC(=O)C(O)(c2ccccc2)c2ccccc2)C1 (stereo unspecified),normalized intracellular growth,time point: T3 (3 h),0.855 ± 0.07
same,normalized intracellular growth,time point: Tfinal (~6 h),0.822 ± 0.13
c1ccc2c(c1)OCC(C1=NCCN1)O2 (stereo unspecified),normalized intracellular growth,time point: T3 (3 h),0.997 ± 0.074
same,normalized intracellular growth,time point: Tfinal (~6 h),0.914 ± 0.12
CC[C@@H](CO)NC(=O)[C@@H]1C=C2c3cccc4c3c(cn4C)C[C@H]2N(C)C1,normalized intracellular growth,time point: T3 (3 h),0.9989 ± 0.007
same,normalized intracellular growth,time point: Tfinal (~6 h),0.88 ± 0.16
COc1cc2c(c(OC)c1OC)-c1ccc(OC)c(=O)cc1[C@@H](NC(C)=O)CC2,normalized intracellular growth,time point: T3 (3 h),0.868 ± 0.062
same,normalized intracellular growth,time point: Tfinal (~6 h),0.929 ± 0.046
C[C@]12CC[C@H](O)CC1=CC[C@@H]1[C@@H]2CC[C@]2(C)C(=O)CC[C@@H]12,normalized intracellular growth,time point: T3 (3 h),1.08 ± 0.025
same,normalized intracellular growth,time point: Tfinal (~6 h),1.09 ± 0.13
CC1C=CC=CCCC=CC=CC=CC=CC(OC2OC(C)C(O)C(N)C2O)CC2OC(O)(CC(O)C(O)CCC(O)CC(O)CC(O)CC(=O)OC(C)C(C)C1O)CC(O)C2C(=O)O (stereo unspecified),normalized intracellular growth,time point: T3 (3 h),0.984 ± 0.055
same,normalized intracellular growth,time point: Tfinal (~6 h),0.908 ± 0.053
Cc1cc(C(C#N)c2ccc(Cl)cc2)c(Cl)cc1NC(=O)c1cc(I)cc(I)c1O (stereo unspecified),normalized intracellular growth,time point: T3 (3 h),1.03 ± 0.078
same,normalized intracellular growth,time point: Tfinal (~6 h),1.08 ± 0.096
COc1ccc2c(c1OC)C(=O)O[C@@H]2[C@H]1c2cc3c(cc2CCN1C)OCO3,normalized intracellular growth,time point: T3 (3 h),1.01 ± 0.029
same,normalized intracellular growth,time point: Tfinal (~6 h),1.06 ± 0.033
O=C(O)c1nn(Cc2ccc(Cl)cc2Cl)c2ccccc12,normalized intracellular growth,time point: T3 (3 h),0.985 ± 0.1
same,normalized intracellular growth,time point: Tfinal (~6 h),0.912 ± 0.18
C[C@@H]1C[C@@H]([C@H](O)CC2CC(=O)NC(=O)C2)C(=O)[C@@H](C)C1,normalized intracellular growth,time point: T3 (3 h),0.986 ± 0.025
same,normalized intracellular growth,time point: Tfinal (~6 h),1.34 ± 0.13
CCC1(C2=NCCN2)Cc2ccccc2O1 (stereo unspecified),normalized intracellular growth,time point: T3 (3 h),1.01 ± 0.033
same,normalized intracellular growth,time point: Tfinal (~6 h),0.868 ± 0.28
CC[C@@H](CO)NC(=O)[C@@H]1C=C2c3cccc4[nH]cc(c34)C[C@H]2N(C)C1,normalized intracellular growth,time point: T3 (3 h),1.14 ± 0.061
same,normalized intracellular growth,time point: Tfinal (~6 h),1.08 ± 0.046
CCCCOC(=O)c1ccccc1C(=O)OCCCC,normalized intracellular growth,time point: T3 (3 h),1.029 ± 0.01
same,normalized intracellular growth,time point: Tfinal (~6 h),1.11 ± 0.15
CC(O)(CS(=O)(=O)c1ccc(F)cc1)C(=O)Nc1ccc(C#N)c(C(F)(F)F)c1 (stereo unspecified),normalized intracellular growth,time point: T3 (3 h),1.16 ± 0.098
same,normalized intracellular growth,time point: Tfinal (~6 h),0.987 ± 0.071
CCOC(=O)c1cncn1[C@H](C)c1ccccc1,normalized intracellular growth,time point: T3 (3 h),1 ± 0.064
same,normalized intracellular growth,time point: Tfinal (~6 h),1.14 ± 0.16
O=C(CCCN1CCC2(CC1)C(=O)NCN2c1ccccc1)c1ccc(F)cc1,normalized intracellular growth,time point: T3 (3 h),0.773 ± 0.12
same,normalized intracellular growth,time point: Tfinal (~6 h),1 ± 0.12
O=[N+]([O-])O[C@H]1CO[C@H]2[C@@H]1OC[C@H]2O[N+](=O)[O-],normalized intracellular growth,time point: T3 (3 h),1.003 ± 0.0081
same,normalized intracellular growth,time point: Tfinal (~6 h),0.83 ± 0.048
CC[C@@H](C)C(=O)O[C@H]1[C@H](O)[C@H]2[C@@H](CN3C[C@@H](C)CC[C@H]3[C@@]2(C)O)[C@@H]2C[C@]34O[C@]5(O)[C@@H](OC(=O)[C@@](C)(O)CC)CC[C@@]3(C)[C@@H]5[C@@H](OC(C)=O)[C@@H](OC(C)=O)[C@H]4[C@@]21O,normalized intracellular growth,time point: T3 (3 h),0.971 ± 0.073
same,normalized intracellular growth,time point: Tfinal (~6 h),1.07 ± 0.061
O=c1cccc2n1C[C@@H]1CNC[C@H]2C1,normalized intracellular growth,time point: T3 (3 h),1.09 ± 0.055
same,normalized intracellular growth,time point: Tfinal (~6 h),0.975 ± 0.091
NCC1(CC(=O)O)CCCCC1,normalized intracellular growth,time point: T3 (3 h),1.05 ± 0.082
same,normalized intracellular growth,time point: Tfinal (~6 h),1.19 ± 0.17

# A different layout for some results above:
smiles	measurement	setting	value
Cc1cc(C(C#N)c2ccc(Cl)cc2)c(Cl)cc1NC(=O)c1cc(I)cc(I)c1O (stereo unspecified)	normalized intracellular growth	time point: Tfinal (~6 h)	1.08 ± 0.096
COc1ccc2c(c1OC)C(=O)O[C@@H]2[C@H]1c2cc3c(cc2CCN1C)OCO3	normalized intracellular growth	time point: T3 (3 h)	1.01 ± 0.029
same	normalized intracellular growth	time point: Tfinal (~6 h)	1.06 ± 0.033
O=C(O)c1nn(Cc2ccc(Cl)cc2Cl)c2ccccc12	normalized intracellular growth	time point: T3 (3 h)	0.985 ± 0.1
same	normalized intracellular growth	time point: Tfinal (~6 h)	0.912 ± 0.18
C[C@@H]1C[C@@H]([C@H](O)CC2CC(=O)NC(=O)C2)C(=O)[C@@H](C)C1	normalized intracellular growth	time point: T3 (3 h)	0.986 ± 0.025
same	normalized intracellular growth	time point: Tfinal (~6 h)	1.34 ± 0.13
CCC1(C2=NCCN2)Cc2ccccc2O1 (stereo unspecified)	normalized intracellular growth	time point: T3 (3 h)	1.01 ± 0.033
same	normalized intracellular growth	time point: Tfinal (~6 h)	0.868 ± 0.28
